Experimental data reported in PMC8915600, “Optimization of experimental conditions for skin-PAMPA measurements” (ADMET & DMPK, 2020).

Assay: skin-PAMPA permeability assay (gradient-pH, UPLC-DAD)
Conditions: mole fraction, neutral form

RM (membrane retention) (with stirring, 30 min incubation): 0.13(±0.03) | RM (membrane retention) (with stirring, 4 h incubation): 0.00 | RM (membrane retention) (with stirring, 24 h incubation): 0.00 | RM (membrane retention) (without stirring, 30 min incubation): 0.09(±0.02) | RM (membrane retention) (without stirring, 4 h incubation): 0.04(±0.02) | RM (membrane retention) (without stirring, 24 h incubation): 0.00
SMILES: COc1ccc2cc([C@H](C)C(=O)O)ccc2c1 [Naproxen]
